PubChem BioAssay AID1159578 – Peter MacCallum Cancer Centre | 2015

Aim: 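Knock-downs that alter how fast lymphatic endothelial cells migrate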 (primary screen)
Cell system: human lymphatic endothelial cells
Knock-down reagent: siRNA pool against human genes, 40 nM
Time to read-out: 48 h after transfection
Read-out: 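High-content imaging of dye-stained cells in a scratch assay measures filled wound area and nuclei per well; duplicate means given as ratio to mock and robust z-score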
Direction: migration robust z-score: higher = faster migration into the scratch; nuclei per well: higher = more cells in the well
Rule for the call: 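Migration changed when robust z exceeds 2 or falls below -2 and mean nuclei number is at least 3300; otherwise not called changed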
Meaning of the calls: active = migration changed; inactive = no migration change, or too few cells
The deposit covers about 18,000 reagents; this is a part drawn at random. Of all reagents, about 1,030 (5.7%) are marked active. 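Inactive calls also include pools with fewer than 3300 nuclei, whose migration was not assessed.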 Raw values are not corrected between plates. Entries without a mark were called inactive. Not all columns of the deposit are shown.

Against ARB2A (ARB2 cotranscriptional regulator A), the entry reads migration robust z-score -2.82 (active); migration class with cell-count check migration z below -2; enough cells; nuclei per well, duplicate mean 4272.
For S100A4 (S100 calcium binding protein A4), the entry reads migration robust z-score -0.3; migration class with cell-count check migration z between -2 and 2; enough cells; nuclei per well, duplicate mean 4845.
With knock-down of OSBPL10 (oxysterol binding protein like 10), the record shows migration robust z-score 0.78; migration class with cell-count check migration z between -2 and 2; enough cells; nuclei per well, duplicate mean 5845.
Against SLC7A6 the deposit lists migration robust z-score -0.06; migration class with cell-count check migration z between -2 and 2; enough cells; nuclei per well, duplicate mean 5561.
Depletion of LIAS (lipoic acid synthetase) resulted in: migration robust z-score -0.31; migration class with cell-count check migration z between -2 and 2; enough cells; nuclei per well, duplicate mean 5312.
Silencing of CHIC2 (cysteine rich hydrophobic domain 2) resulted in: migration robust z-score 0.05; migration class with cell-count check migration z between -2 and 2; enough cells; nuclei per well, duplicate mean 6252.
KCNC1 (potassium voltage-gated channel subfamily C member 1) scored migration robust z-score -0.52; migration class with cell-count check migration z between -2 and 2; enough cells; nuclei per well, duplicate mean 4978.
TTC1 (tetratricopeptide repeat domain 1) gave migration robust z-score 0.76; migration class with cell-count check migration z between -2 and 2; enough cells; nuclei per well, duplicate mean 4886.
Depletion of TXNDC5 (thioredoxin domain containing 5) came out at: migration robust z-score 0.6; migration class with cell-count check migration z between -2 and 2; enough cells; nuclei per well, duplicate mean 4931.
RUVBL2 (RuvB like AAA ATPase 2) showed migration robust z-score -0.78; migration class with cell-count check migration z between -2 and 2; enough cells; nuclei per well, duplicate mean 5202.
With knock-down of RGPD2 (RANBP2 like and GRIP domain containing 2), the record shows migration robust z-score 0.84; migration class with cell-count check migration z between -2 and 2; enough cells; nuclei per well, duplicate mean 6846.
With knock-down of CENPP (centromere protein P), the screen gave migration robust z-score -3.19; migration class with cell-count check under 3300 nuclei; migration not judged; nuclei per well, duplicate mean 2550.
For LINC02914 (long independently transcribed non-coding RNA 2914), the values are migration robust z-score -1.45; migration class with cell-count check migration z between -2 and 2; enough cells; nuclei per well, duplicate mean 5878.
Against TASL (TLR adaptor interacting with endolysosomal SLC15A4) the deposit lists migration robust z-score 0.65; migration class with cell-count check migration z between -2 and 2; enough cells; nuclei per well, duplicate mean 6174.
SUCLG2 (succinate-CoA ligase GDP-forming subunit beta) gave migration robust z-score 0.96; migration class with cell-count check migration z between -2 and 2; enough cells; nuclei per well, duplicate mean 5862.
For CDH18 (cadherin 18) the deposit lists migration robust z-score 1.36; migration class with cell-count check migration z between -2 and 2; enough cells; nuclei per well, duplicate mean 5622.
Depletion of SLC20A2 came out at: migration robust z-score -0.8; migration class with cell-count check migration z between -2 and 2; enough cells; nuclei per well, duplicate mean 5982.
Against SKA1 (spindle and kinetochore associated complex subunit 1), the entry reads migration robust z-score 0.36; migration class with cell-count check migration z between -2 and 2; enough cells; nuclei per well, duplicate mean 6132.
Depletion of NT5E (5'-nucleotidase ecto) gave: migration robust z-score -0.83; migration class with cell-count check migration z between -2 and 2; enough cells; nuclei per well, duplicate mean 5310.
Silencing of FIGLA (folliculogenesis specific bHLH transcription factor) resulted in: migration robust z-score -1.18; migration class with cell-count check migration z between -2 and 2; enough cells; nuclei per well, duplicate mean 4335.
Knock-down of EPB41L5 (erythrocyte membrane protein band 4.1 like 5) gave: migration robust z-score 0.26; migration class with cell-count check migration z between -2 and 2; enough cells; nuclei per well, duplicate mean 5235.

Entries listed so far called active, once more:
ARB2A (ARB2 cotranscriptional regulator A): migration robust z-score = -2.82 (active); migration class with cell-count check = migration z below -2; enough cells; nuclei per well, duplicate mean = 4272
